# Percent effect of library compounds

Protein sequences, listed by entry. Tags and fused reporters are not part of them. Residues count along the entry.
UniProt Q4DA54, 1-478: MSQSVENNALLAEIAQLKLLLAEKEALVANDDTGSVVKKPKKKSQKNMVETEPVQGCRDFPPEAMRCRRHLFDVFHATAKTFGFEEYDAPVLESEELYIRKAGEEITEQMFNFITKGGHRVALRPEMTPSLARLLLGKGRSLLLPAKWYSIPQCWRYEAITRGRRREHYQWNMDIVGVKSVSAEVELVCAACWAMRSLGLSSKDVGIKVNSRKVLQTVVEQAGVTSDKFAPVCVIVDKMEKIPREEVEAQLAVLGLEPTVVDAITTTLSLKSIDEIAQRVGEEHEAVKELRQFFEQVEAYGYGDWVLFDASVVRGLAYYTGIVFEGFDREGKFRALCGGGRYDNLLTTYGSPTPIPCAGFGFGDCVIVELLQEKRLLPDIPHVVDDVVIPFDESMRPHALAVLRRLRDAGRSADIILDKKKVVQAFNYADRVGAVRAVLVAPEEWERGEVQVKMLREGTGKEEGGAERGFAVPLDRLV
UniProt I6X8D2, whole entry: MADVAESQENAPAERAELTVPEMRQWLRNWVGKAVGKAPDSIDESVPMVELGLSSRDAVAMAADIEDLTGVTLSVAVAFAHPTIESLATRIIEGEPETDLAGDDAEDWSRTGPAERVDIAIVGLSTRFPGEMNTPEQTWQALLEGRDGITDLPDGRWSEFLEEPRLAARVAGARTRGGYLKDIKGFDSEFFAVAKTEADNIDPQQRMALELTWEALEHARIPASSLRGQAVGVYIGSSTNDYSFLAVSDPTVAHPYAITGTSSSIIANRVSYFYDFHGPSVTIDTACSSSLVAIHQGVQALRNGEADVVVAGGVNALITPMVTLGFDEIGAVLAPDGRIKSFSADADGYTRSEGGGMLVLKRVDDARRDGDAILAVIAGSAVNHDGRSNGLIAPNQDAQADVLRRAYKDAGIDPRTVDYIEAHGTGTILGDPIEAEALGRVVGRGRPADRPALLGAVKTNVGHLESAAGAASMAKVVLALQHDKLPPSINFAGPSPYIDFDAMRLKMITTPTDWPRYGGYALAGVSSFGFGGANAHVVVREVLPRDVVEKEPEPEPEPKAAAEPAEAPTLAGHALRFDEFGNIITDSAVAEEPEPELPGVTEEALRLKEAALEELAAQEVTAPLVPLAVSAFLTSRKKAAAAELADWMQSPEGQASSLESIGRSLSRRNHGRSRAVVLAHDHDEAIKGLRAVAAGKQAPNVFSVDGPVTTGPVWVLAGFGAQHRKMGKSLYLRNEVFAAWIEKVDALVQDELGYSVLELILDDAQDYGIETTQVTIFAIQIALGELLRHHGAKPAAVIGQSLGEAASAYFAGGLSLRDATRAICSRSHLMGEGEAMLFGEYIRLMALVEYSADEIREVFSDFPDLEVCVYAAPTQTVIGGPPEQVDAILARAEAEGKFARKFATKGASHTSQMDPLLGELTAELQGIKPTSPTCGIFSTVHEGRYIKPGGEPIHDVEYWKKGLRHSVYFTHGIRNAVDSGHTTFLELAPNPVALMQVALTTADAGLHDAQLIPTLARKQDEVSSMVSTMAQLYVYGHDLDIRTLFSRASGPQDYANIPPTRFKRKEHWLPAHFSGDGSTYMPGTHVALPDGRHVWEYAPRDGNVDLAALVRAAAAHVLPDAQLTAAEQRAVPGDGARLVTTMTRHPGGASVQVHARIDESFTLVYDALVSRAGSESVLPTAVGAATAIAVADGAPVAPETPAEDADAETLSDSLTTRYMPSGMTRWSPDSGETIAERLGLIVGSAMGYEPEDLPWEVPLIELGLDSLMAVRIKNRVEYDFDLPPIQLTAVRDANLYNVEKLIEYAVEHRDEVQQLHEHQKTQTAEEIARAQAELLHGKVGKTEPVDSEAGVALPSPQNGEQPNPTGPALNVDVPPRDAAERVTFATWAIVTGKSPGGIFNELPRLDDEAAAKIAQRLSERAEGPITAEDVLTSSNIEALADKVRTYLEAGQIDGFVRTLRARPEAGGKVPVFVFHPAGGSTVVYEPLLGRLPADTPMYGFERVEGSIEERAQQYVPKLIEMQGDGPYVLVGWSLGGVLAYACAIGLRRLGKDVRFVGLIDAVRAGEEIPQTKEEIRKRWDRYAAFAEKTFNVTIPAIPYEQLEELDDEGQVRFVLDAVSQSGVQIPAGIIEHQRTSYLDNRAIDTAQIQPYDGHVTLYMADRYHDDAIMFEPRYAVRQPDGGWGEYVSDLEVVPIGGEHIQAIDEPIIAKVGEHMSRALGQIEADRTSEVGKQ
UniProt P9WNZ1, whole entry: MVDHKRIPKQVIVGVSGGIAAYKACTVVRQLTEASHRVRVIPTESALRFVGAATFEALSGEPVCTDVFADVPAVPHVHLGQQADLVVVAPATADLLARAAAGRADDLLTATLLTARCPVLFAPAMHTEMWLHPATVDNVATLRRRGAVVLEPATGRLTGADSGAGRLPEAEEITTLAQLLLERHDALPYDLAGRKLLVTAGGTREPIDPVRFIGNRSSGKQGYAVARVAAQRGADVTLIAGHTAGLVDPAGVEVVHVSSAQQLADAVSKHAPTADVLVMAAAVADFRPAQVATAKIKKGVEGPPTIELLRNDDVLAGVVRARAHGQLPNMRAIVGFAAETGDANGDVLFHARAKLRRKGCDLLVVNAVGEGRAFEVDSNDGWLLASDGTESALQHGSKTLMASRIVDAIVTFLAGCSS
UniProt Q8IDJ8, 1-583: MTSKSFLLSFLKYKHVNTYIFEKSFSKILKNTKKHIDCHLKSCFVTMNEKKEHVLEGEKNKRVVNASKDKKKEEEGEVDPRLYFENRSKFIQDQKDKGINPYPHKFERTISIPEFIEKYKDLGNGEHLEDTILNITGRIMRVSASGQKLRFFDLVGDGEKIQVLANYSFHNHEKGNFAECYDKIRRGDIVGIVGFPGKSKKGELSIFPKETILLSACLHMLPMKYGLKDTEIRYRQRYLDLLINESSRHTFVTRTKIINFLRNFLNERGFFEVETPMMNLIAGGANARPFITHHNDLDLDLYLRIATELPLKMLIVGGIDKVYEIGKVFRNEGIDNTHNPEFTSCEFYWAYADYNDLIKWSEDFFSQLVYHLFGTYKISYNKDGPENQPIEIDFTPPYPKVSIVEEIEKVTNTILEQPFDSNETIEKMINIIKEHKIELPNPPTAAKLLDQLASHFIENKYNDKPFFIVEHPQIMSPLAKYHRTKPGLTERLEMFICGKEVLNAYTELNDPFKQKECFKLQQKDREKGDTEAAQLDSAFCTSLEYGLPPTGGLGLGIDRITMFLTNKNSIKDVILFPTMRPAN
UniProt P9WFT3, whole entry: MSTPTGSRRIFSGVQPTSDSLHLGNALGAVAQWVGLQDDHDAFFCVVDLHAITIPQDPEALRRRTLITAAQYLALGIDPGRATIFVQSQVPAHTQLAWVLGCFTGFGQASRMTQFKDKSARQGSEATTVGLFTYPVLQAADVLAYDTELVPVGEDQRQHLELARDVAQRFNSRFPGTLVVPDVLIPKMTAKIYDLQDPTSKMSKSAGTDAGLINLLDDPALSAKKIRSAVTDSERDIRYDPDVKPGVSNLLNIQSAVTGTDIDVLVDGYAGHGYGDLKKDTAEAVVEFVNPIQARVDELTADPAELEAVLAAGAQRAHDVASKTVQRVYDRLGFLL

A: 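Histidine-tRNA ligase, Trypanosoma cruzi CL Brener (UniProt Q4DA54). Enzyme assay of histidyl-tRNA synthetase; the read-out is not stated. Concentration: 30 µM. The record gives no direction; compounds that gave an IC50 in retests scored well above the rest, so higher reads as stronger inhibition. About 69,000 compounds were tested under these conditions; 0.045% (about 31) showed 50% or more at least once.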
B: 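Polyketide synthase Pks13, Mycobacterium tuberculosis (UniProt I6X8D2). Enzyme assay of the thioesterase domain of polyketide synthase 13; the read-out is not stated. Tested at 30 µM. The record gives no direction; the compounds picked for IC50 retests had high values, so higher reads as stronger inhibition. Of about 67,000 compounds tested this way, about 300 (0.46%) reached 50% or more in at least one test.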
C: 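Enzyme assay of CoaBC with a phosphate dye (Biomol Green) read at 650 nm. Target: Coenzyme A biosynthesis protein CoaBC, Mycobacterium tuberculosis (UniProt P9WNZ1). Concentration: 30 µM. Direction is inferred from only a few compounds that gave an IC50; most scored high, so higher reads as stronger inhibition. Most strong results did not repeat in a second test. About 67,000 compounds were tested under these conditions; 0.06% (about 40) showed 50% or more at least once.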
D: 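Cell assay of Leishmania donovani living inside macrophages; the read-out is not stated. Compounds at 30 µM. Higher reads as stronger inhibition (inferred: compounds with an IC50 in retests scored well above the rest). Of about 69,000 compounds tested this way, about 1,000 (1.5%) reached 50% or more in at least one test.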
E: 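Lysine-tRNA ligase, Plasmodium falciparum 3D7 (UniProt Q8IDJ8). Enzyme assay of the cytosolic lysyl-tRNA synthetase in 384-well plates, read by luminescence. Tested at 30 µM. Direction is inferred from only a few compounds that gave an IC50; most scored high, so higher reads as stronger inhibition. Size under these conditions: about 69,000 compounds, about 49 of them at 50% or above in at least one test.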
F: 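Enzyme assay of tryptophanyl-tRNA synthetase; the read-out is not stated. Target: Tryptophan-tRNA ligase, Mycobacterium tuberculosis (UniProt P9WFT3). Tested at 10 µM. Direction is not recorded; retested compounds ran higher, which suggests that high means inhibition. Size under these conditions: about 65,000 compounds, about 64 of them at 50% or above in at least one test.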

Each number is a percent effect as filed. The record does not define 0% and 100%; most values in the screen are far below 50% and negative numbers occur (in some assays of this library far below -100). This is an unselected part of the compounds tested.

* O=C1CCCN1CCN1CCCC(c2ccn[nH]2)C1 (stereo not shown) | A: 1.087%; B: -15.92%; C: -4.637%; D: 21.57%; E: 0.8478%; F: -1.615%
* Cc1ccc(S(=O)(=O)Nc2ccc(-n3cccc3C(=O)O)c(C)c2)cc1 | A: 1.667%; B: -4.967%; C: 4.132%; D: 9.551%; E: 4.986%; F: 2.679%
* Cc1cc(C)c(CNC(=O)C2CCCN(c3cnccn3)C2)c(=O)[nH]1 (stereo not shown) | A: 1.141%; B: 5.25%; C: 3.723%; D: -8.913%; E: 3.602%; F: 4.403%
* Cc1cccc(COC[C@H]2CC[C@H]3[C@H](CCN3Cc3ccco3)O2)n1 | A: 13.07%; B: -4.344%; C: 9.208%; E: -25.89%; F: 3.239%
* CC(C)CCN1CCC2(CCCN(c3nncs3)C2)C1 (stereo not shown) | A: 9.783%; B: 23.2%; C: -52.8%; E: 6.002%; F: -5.013%
* O=c1cccnn1CC1CN(CC2CCCC2)Cc2nccn2C1 (stereo not shown) | A: 7.619%; B: -25.28%; C: -15.41%; E: 0.7548%; F: 1.862%
* CCc1ccc(C(=O)N2CCC(c3nncn3CC)CC2)s1 | A: 1.17%; B: -0.2505%; C: 5.357%; D: 8.149%; E: 0.3295%; F: 19.42%
* Cc1cnn(CC2CCCN2C(=O)c2csc(C(C)C)n2)c1 (stereo not shown) | A: 3.79%; B: -8.497%; C: 1.044%; D: -12.67%; E: -1.314%; F: 1.379%
* CC[C@H]1CN(C(=O)c2ccc(-n3cnnc3)nc2)CC[C@@]1(C)O | A: 8.173%; B: 30.91%; C: -88.42%; D: 7.368%; E: -0.7733%; F: 2.227%
* CCC(C)N1Cc2c(C(=O)N3CCOCC3)nn(C)c2C1.O=C(O)C(F)(F)F (stereo not shown) | D: 30.99%
* O=C(NCCCn1cccn1)C1(c2ccc(F)cc2)CC1 | A: 0.8264%; B: -8.742%; C: 10.45%; D: 38.91%; E: -0.3362%; F: -0.3564%
* CCc1noc(CNc2cc(F)ccc2OCC2CCCO2)n1 (stereo not shown) | A: 3.333%; B: 3.008%; C: -0.6397%; D: 8.311%; E: 2.243%; F: -2.709%
* NC(=O)COc1cccc(Cn2cc(Br)cn2)c1 | A: 6.077%; B: -12.41%; C: 0.3822%; D: 20.87%; E: 0%; F: 0.5112%
* CSc1nccc(NCc2cc3n(n2)CCCN(S(C)(=O)=O)C3)n1 | A: 1.02%; C: 10.71%; D: -10.53%; E: 8.57%; F: -2.187%
* CNc1cc(-c2nc(CCN3CCCC3=O)no2)ccn1 | A: -1.064%; B: 0.2509%; C: 7.592%; D: -8.642%; E: -11.66%; F: 5.248%

Once more, the final 2:

{"smiles": "CSc1nccc(NCc2cc3n(n2)CCCN(S(C)(=O)=O)C3)n1", "A": 1.02, "C": 10.71, "D": -10.53, "E": 8.57, "F": -2.187}
{"smiles": "CNc1cc(-c2nc(CCN3CCCC3=O)no2)ccn1", "A": -1.064, "B": 0.2509, "C": 7.592, "D": -8.642, "E": -11.66, "F": 5.248}

Source: ChEMBL document CHEMBL3988442, “University of Dundee, Small-Polar-MMV Screening Library” (2021).